Test results from the supplement of paper PMC12823440, “Inhibitors supercharge kinase turnover through native proteolytic circuits” (Nature, 2025).
Where a name gives a salt, the structure may show the parent alone. This is one part of the list. Hit calls seldom repeat between salt and free forms of one compound.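 Kinases were expressed as nanoluciferase fusions in K562 cells and luminescence was read every 4 h between 2 and 18 h as percent of control, DMSO set to 100% and a positive control to 0%. A time point counts as decreased when the signal drops significantly (2 sigma). The hit call is the authors' own, does not follow from the count of time points alone, and its rule is not shown.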

Sequences of proteins named here, by UniProt entry; tags and fusion partners are left off.
UniProt P29317, whole entry: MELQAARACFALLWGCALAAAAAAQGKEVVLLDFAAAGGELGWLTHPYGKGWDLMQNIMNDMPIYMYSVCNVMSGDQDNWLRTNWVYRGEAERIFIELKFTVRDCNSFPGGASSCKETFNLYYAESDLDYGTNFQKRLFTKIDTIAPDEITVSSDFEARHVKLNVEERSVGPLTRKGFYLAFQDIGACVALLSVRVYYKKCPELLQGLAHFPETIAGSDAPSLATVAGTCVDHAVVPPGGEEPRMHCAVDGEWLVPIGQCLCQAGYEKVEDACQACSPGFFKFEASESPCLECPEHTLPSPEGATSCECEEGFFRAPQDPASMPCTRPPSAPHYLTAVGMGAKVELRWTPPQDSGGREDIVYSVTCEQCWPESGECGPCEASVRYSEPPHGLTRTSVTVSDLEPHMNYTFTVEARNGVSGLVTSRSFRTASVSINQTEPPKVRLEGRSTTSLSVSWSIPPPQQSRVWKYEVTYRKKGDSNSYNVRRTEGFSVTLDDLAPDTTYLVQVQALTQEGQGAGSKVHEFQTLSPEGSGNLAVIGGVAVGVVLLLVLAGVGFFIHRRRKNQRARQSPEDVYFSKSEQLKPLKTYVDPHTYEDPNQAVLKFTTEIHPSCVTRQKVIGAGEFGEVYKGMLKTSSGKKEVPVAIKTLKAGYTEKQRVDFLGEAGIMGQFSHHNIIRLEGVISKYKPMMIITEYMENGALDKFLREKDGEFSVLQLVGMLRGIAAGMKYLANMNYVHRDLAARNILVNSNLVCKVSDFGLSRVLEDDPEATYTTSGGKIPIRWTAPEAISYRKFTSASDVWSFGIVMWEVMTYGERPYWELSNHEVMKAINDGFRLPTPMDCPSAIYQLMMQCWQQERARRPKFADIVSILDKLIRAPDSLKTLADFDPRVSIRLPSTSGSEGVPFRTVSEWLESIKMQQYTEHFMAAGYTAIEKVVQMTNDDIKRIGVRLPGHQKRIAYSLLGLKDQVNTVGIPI
UniProt P21860, whole entry: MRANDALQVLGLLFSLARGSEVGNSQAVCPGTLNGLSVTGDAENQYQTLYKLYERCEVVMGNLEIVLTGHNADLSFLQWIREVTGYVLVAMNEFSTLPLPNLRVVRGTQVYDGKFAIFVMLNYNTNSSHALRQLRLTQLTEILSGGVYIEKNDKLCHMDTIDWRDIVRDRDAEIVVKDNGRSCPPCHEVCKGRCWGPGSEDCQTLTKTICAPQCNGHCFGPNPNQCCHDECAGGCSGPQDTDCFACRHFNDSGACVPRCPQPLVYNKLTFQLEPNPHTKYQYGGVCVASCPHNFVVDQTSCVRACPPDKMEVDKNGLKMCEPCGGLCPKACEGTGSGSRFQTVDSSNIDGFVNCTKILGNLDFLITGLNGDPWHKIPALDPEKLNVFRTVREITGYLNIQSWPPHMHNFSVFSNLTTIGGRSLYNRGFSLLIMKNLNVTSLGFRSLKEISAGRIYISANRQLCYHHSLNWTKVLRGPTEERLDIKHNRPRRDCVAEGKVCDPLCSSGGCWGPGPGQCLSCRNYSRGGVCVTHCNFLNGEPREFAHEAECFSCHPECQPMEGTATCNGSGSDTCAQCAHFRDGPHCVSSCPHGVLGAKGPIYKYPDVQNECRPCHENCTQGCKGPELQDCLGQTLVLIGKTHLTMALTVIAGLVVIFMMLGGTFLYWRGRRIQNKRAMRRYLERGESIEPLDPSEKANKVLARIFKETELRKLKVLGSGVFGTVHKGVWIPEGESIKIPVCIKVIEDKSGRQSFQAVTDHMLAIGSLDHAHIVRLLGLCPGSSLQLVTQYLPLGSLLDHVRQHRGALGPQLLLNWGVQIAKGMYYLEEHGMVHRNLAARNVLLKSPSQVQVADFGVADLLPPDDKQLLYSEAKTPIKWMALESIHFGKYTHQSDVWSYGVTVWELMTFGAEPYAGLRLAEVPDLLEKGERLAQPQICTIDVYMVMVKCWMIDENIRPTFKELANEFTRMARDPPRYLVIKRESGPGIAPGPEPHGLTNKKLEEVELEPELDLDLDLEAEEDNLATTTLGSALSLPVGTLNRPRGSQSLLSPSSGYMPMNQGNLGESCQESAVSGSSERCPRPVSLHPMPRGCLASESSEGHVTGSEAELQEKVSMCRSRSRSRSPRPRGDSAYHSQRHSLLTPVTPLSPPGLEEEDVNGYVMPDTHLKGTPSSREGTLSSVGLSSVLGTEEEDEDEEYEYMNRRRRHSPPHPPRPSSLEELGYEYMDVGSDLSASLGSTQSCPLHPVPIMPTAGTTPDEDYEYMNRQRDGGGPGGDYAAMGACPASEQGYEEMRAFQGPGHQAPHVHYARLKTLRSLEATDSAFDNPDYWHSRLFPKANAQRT

Each compound was assayed against EPHA2 (UniProt P29317) (assay: kinase-Nluc reporter destabilization hit call (1 = scored as downregulated) (binary); higher = compound decreases kinase abundance). Conditions: 10 µM; K562; 2-18 h.

kinase-Nluc reporter destabilization hit call, inactive:
COc1cc2ncnc(Nc3ccc(F)c(Cl)c3)c2cc1OCCCN1CCOCC1 [Gefitinib] 0
O=C(Nc1cccc(Cl)c1)Nc1ncc(CCNc2ncnc3ccsc23)s1 [SNS-314 (mesylate)] 0
CC[C@@H]1C(=O)N(C)c2cnc(Nc3ccc(C(=O)NC4CCN(C)CC4)cc3OC)nc2N1C1CCCC1 0
O=S(=O)(c1cccc2c(O)nccc12)N1CCCNCC1 [Hydroxyfasudil (hydrochloride)] 0
Cn1cc(/C=C2\C(=O)Nc3cccnc32)c2ccccc21 0
CC(C)(C)n1nc(-c2ccc(Cl)cc2)c2c(N)ncnc21 0
Nc1ncnc2n[nH]c(-c3ccc(Oc4ccccc4)cc3)c12 [Ibrutinib deacryloylpiperidine] 0
O=S(=O)(c1cccc2c(O)nccc12)N1CCCNCC1 [Hydroxyfasudil] 0
CCOc1nc(NC(=O)Cc2cc(OC)ccc2OC)cc(N)c1C#N [JNK Inhibitor VIII] 0
COc1nccc(-c2c(-c3ccc(F)cc3)ncn2C2CCNCC2)n1 0
O=C1Cc2c([nH]c3ccc(Br)cc23)-c2ccccc2N1 [Kenpaullone] 0
CNC(=O)c1cc(Oc2ccc(NC(=O)Nc3ccc(Cl)c(C(F)(F)F)c3)cc2)ccn1 [Sorafenib (Tosylate)] 0
N#CC(=Cc1cc(Cl)cc(Cl)c1)c1cccnc1 0
COc1cc2ncnc(Nc3cccc(Br)c3)c2cc1OC 0
O=C(NCCCNc1nc(Nc2cccc(CN3CCOCC3)c2)ncc1C1CC1)C1CCC1 0
C=CC(=O)Nc1cc2c(Nc3ccc(F)c(Cl)c3)ncnc2cc1OCCCN1CCOCC1 [Canertinib] 0

Reprinted at random: two entries already listed
kinase-Nluc reporter destabilization hit call, inactive:
Nc1ncnc2n[nH]c(-c3ccc(Oc4ccccc4)cc3)c12 [Ibrutinib deacryloylpiperidine] 0
O=S(=O)(c1cccc2c(O)nccc12)N1CCCNCC1 [Hydroxyfasudil (hydrochloride)] 0

These compounds were tested against ERBB3 (UniProt P21860) in the same assay as above. Conditions: 2.5 µM; K562; 2-18 h.

kinase-Nluc reporter destabilization hit call, inactive:
CC1(C)CNc2cc(NC(=O)c3cccnc3NCc3ccncc3)ccc21 [Motesanib] 0
CC(C)n1nc(-c2cc3cc(O)ccc3[nH]2)c2c(N)ncnc21 [Torkinib] 0
CCN(CC)CCNC(=O)c1c(C)[nH]c(/C=C2\C(=O)Nc3ccc(F)cc32)c1C [Sunitinib] 0
COc1ccc(CNC(=O)Nc2ncc([N+](=O)[O-])s2)cc1 0
Cc1cc(Nc2cc(N3CCN(C)CC3)nc(/C=C/c3ccccc3)n2)n[nH]1 0
Cc1cc(Nc2cc(N3CCN(C)CC3)nc(/C=C/c3ccccc3)n2)n[nH]1 [ENMD-2076 (Tartrate)] 0
NC(=O)c1c(OCc2c(F)cc(Br)cc2F)nsc1NC(=O)NCCCCN1CCCC1 0
O=C(c1ccc(/C=C/c2n[nH]c3ccccc23)cc1)N1CCNCC1 0
C=CC(=O)Nc1cc2c(Nc3ccc(F)c(Cl)c3)ncnc2cc1OCCCN1CCOCC1 [Canertinib (dihydrochloride)] 0
COc1cc2/c(=N/c3ccc(Br)cc3F)nc[nH]c2cc1OCC1CCN(C)CC1 [Vandetanib] 0
Nc1ncnc2c1c(-c1cnc3[nH]ccc3c1)nn2C1CCCC1 0
CC1(C)CNc2cc(NC(=O)c3cccnc3NCc3ccncc3)ccc21 [Motesanib (Diphosphate)] 0
CCOc1cc2ncc(C#N)c(Nc3ccc(F)c(Cl)c3)c2cc1NC(=O)/C=C/CN(C)C [Pelitinib] 0
CNC(=O)c1cc(Oc2ccc(NC(=O)Nc3ccc(Cl)c(C(F)(F)F)c3)cc2)ccn1 [Sorafenib] 0
Cc1cn(-c2cc(NC(=O)c3ccc(C)c(Nc4nccc(-c5cccnc5)n4)c3)cc(C(F)(F)F)c2)cn1 [Nilotinib] 0
Cc1nc(Nc2ncc(C(=O)Nc3c(C)cccc3Cl)s2)cc(N2CCN(CCO)CC2)n1 [Dasatinib] 0
COc1cc(Nc2c(C#N)cnc3cc(OCCCN4CCN(C)CC4)c(OC)cc23)c(Cl)cc1Cl [Bosutinib] 0
CCc1cc2c(cc1-c1cnn(CC(=O)N(C)C)c1)C(C)(C)c1[nH]c3cc(C#N)ccc3c1C2=O 0
CN1CCN(c2nc(C3=C(c4c[nH]c5ccccc45)C(=O)NC3=O)c3ccccc3n2)CC1 [Sotrastaurin] 0
O=C1NCCc2[nH]c(-c3ccncc3)cc21 0
COc1cc(N2CCC(N3CCN(C)CC3)CC2)ccc1Nc1ncc(Cl)c(Nc2ccccc2S(=O)(=O)C(C)C)n1 0
